# PubChem BioAssay AID504791, Drosophila RNAi Screening Center – 2011
# Aim: 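Genes whose knock-down strengthens or weakens small-RNA reporter silencing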 (primary screen)
# System: Drosophila S2-derived reporter cells
# Knock-down reagent: long dsRNA against Drosophila genes, about 150-250 ng dsRNA per well (siRNA assay); about 80-120 ng (miRNA assay)
# Duration: about 5 days (siRNA assay); about 4 days (miRNA assay)
# Challenge: copper sulfate induction of reporters: 25 µM (siRNA assay); 200 mM stated (miRNA assay), 1-2 days before reading
# Read-out: 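Per-well ratio of Renilla over firefly light, expressed relative to that plate's average ratio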
# Call rule: 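a well was a first-pass pick when its plate-scaled ratio rose above 1.5 (siRNA assay) or 1.6 (miRNA assay), or dropped below 0.6; a gene counted only if two separate dsRNAs agreed on retest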
# The deposit covers about 23,000 reagents; below is an unselected part of those that have a named target and a result. In the full data, 199 (0.86%) were called active. 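Plate-scaled ratios behind the calls are not deposited; printed light signals are raw; many rows marked increased or decreased are still called inactive.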 Names joined by + are all predicted targets of the reagent. Not stated in the record: the direction of the score.
target,DRSC id,stable siRNA reporter change,miRNA reporter change,"stable assay Renilla, run 1 (luminescence)","stable assay firefly, run 1 (luminescence)",call
Snx21 (GeneID 33466),DRSC00564,,,11884,4.00e5,inactive
Spt (GeneID 35889),DRSC07123,,,7226,5.63e5,inactive
GNBP3 (GeneID 39020),DRSC11170,,,6750,3.90e5,inactive
Suv3 (GeneID 40543),DRSC12335,,,8411,4.09e5,inactive
Gdap2 (GeneID 59173),DRSC06789,,,7044,4.05e5,inactive
Gdap2 (GeneID 59173),DRSC06790,,,7018,3.52e5,inactive
Lst (GeneID 36853),DRSC07146,,,6406,3.64e5,inactive
CG12990 (GeneID 32747),DRSC19510,,,6231,5.18e5,inactive
CG33290 (GeneID 2768993),DRSC11493,,,6586,3.84e5,inactive
Amnionless (GeneID 33199),DRSC00317,,,6984,3.91e5,inactive
Nup214 (GeneID 46091),DRSC04421,,,48243,7.82e5,inactive
Pld (GeneID 35554),DRSC04854,,,1.15e5,7.17e5,inactive
CG15185 (GeneID 40798),DRSC12565,,,5578,3.39e5,inactive
CG34408 (GeneID 31953),DRSC17733,,,7349,4.56e5,inactive
CG34408 (GeneID 31953),DRSC21926,reporter ratio raised past the hit cutoff,,8822,3.71e5,inactive
CG34408 (GeneID 31953),DRSC23056,,,5259,2.92e5,inactive
CG34408 (GeneID 31953),DRSC27286,,reporter ratio lowered past the hit cutoff,,,inactive
CG13306 (GeneID 50301),DRSC09976,,,5978,3.81e5,inactive
Ste:CG33238 + Ste:CG33241 + Ste:CG33236 + 11 more,DRSC19004,,,4087,2.85e5,inactive
Ste:CG33238 + Ste:CG33241 + Ste:CG33236 + 11 more,DRSC21260,,,6146,3.44e5,inactive
CG31041 (GeneID 318567),DRSC13951,,,5495,3.51e5,inactive
Tsp42Ed (GeneID 35613),DRSC05940,,,6723,5.17e5,inactive
Hmu (GeneID 43294),DRSC16705,,,6451,4.02e5,inactive
CG30457 (GeneID 36940),DRSC06661,,,5295,4.45e5,inactive
CG12325 (GeneID 36144),DRSC06130,,,7058,3.73e5,inactive
CG30411 (GeneID 246600),DRSC04004,,,4911,4.22e5,inactive
dbr (GeneID 33161),DRSC00274,,,10753,4.51e5,inactive
CG34451 (GeneID 5740612),DRSC09388,,,6335,5.69e5,inactive
CG34451 (GeneID 5740612),DRSC09389,,,5566,4.48e5,inactive
Dred (GeneID 40124),DRSC11057,,,6927,3.42e5,inactive
Dred (GeneID 40124),DRSC11059,,,4767,4.87e5,inactive
bumpel (GeneID 41368),DRSC16100,,,6780,4.34e5,inactive
alpha-Est2 (GeneID 40908),DRSC12614,,,7098,4.24e5,inactive
CG3223 (GeneID 40947),DRSC15468,,,7283,3.92e5,inactive
nero (GeneID 43740),DRSC15432,,,7535,4.38e5,inactive
CG31793 (GeneID 326161),DRSC02605,,,8163,5.50e5,inactive
CG17105 (GeneID 34466),DRSC02574,,,7022,4.49e5,inactive
RhoGAP68F (GeneID 39385),DRSC10717,,,10111,4.86e5,inactive
CG3902 (GeneID 40059),DRSC10387,,,6351,4.65e5,inactive
CG11590 (GeneID 32368),DRSC19411,,,5406,4.13e5,inactive
Ance-4 (GeneID 35909),DRSC07104,,,5007,2.29e5,inactive
mthl9 (GeneID 38056),DRSC08506,,,6655,3.67e5,inactive
CG34327 (GeneID 5740714),DRSC19517,,,5011,4.62e5,inactive
CG34327 (GeneID 5740714),DRSC22380,,,8792,5.88e5,inactive
CG33341 (GeneID 2768683),DRSC22887,,,4983,4.13e5,inactive
CG8401 (GeneID 36770),DRSC07165,,,10064,4.04e5,inactive
LanA (GeneID 38723),DRSC11207,,,7214,3.89e5,inactive
Tip60 (GeneID 31362),DRSC18661,,,6975,6.01e5,inactive
CG10638 (GeneID 39424),DRSC09762,,,8859,5.87e5,inactive
Cyp12a4 (GeneID 42294),DRSC16620,,,6468,3.06e5,inactive
Lim1 (GeneID 31813),DRSC17752,,,9422,7.26e5,inactive
Lim1 (GeneID 31813),DRSC18677,,,3316,4.17e5,inactive

Taken from above:
Amnionless (GeneID 33199) [DRSC00317], stable assay firefly, run 1 (luminescence) → 3.91e5
Result for CG13306 (GeneID 50301) [DRSC09976] under “stable assay firefly, run 1 (luminescence)”: 3.81e5
Result of CG17105 (GeneID 34466) [DRSC02574] under “stable assay firefly, run 1 (luminescence)”: 4.49e5
For “stable assay Renilla, run 1 (luminescence)”, CG34408 (GeneID 31953) [DRSC17733] is entered as 7349
Result of mthl9 (GeneID 38056) [DRSC08506] under “stable assay Renilla, run 1 (luminescence)”: 6655
Value of Nup214 (GeneID 46091) [DRSC04421] under “stable assay Renilla, run 1 (luminescence)”: 48243

Further results follow:
target,DRSC id,stable siRNA reporter change,miRNA reporter change,"stable assay Renilla, run 1 (luminescence)","stable assay firefly, run 1 (luminescence)",call
CG12177 (GeneID 32326),DRSC19437,,,4075,4.68e5,inactive
CG12177 (GeneID 32326),DRSC21524,,,8683,4.77e5,inactive
Grip71 (GeneID 35130),DRSC02042,,,7611,5.96e5,inactive
l(1)G0320 (GeneID 326234),DRSC18255,,,7394,3.71e5,inactive
Gmer (GeneID 37638),DRSC04376,,,44108,9.74e5,inactive
CG3301 (GeneID 42528),DRSC15471,,,8633,2.92e5,inactive
Spt20 (GeneID 39522),DRSC10280,reporter ratio raised past the hit cutoff,reporter ratio lowered past the hit cutoff,4523,1.78e5,inactive
Spt20 (GeneID 39522),DRSC22993,,,5023,4.02e5,inactive
XNP (GeneID 43080),DRSC15594,,,7816,6.22e5,inactive
His3:CG33818 + His3:CG33857 + His3:CG33806 + 20 more,DRSC21267,reporter ratio lowered past the hit cutoff,,5671,7.34e5,active
CG42296 (GeneID 53544),DRSC00394,,,8520,4.71e5,inactive
Snmp1 (GeneID 42514),DRSC16168,,,7028,5.00e5,inactive
LeuRS-m (GeneID 38581),DRSC08595,,,7278,4.25e5,inactive
fs(1)N (GeneID 45973),DRSC18578,,,5758,3.78e5,inactive
MRP (GeneID 34686),DRSC02942,,,60474,4.87e5,inactive
SdhAL (GeneID 39348),DRSC10539,,,7371,4.27e5,inactive
CG11663 (GeneID 31036),DRSC17793,,,5751,2.83e5,inactive
CG11663 (GeneID 31036),DRSC23063,,,3892,3.06e5,inactive
RpL30 (GeneID 44059),DRSC02087,,,8610,5.12e5,inactive
CG13083 (GeneID 35230),DRSC02187,,,6235,3.22e5,inactive
CG42824 + CG42823,DRSC13230,,,4307,4.27e5,inactive
RanBP3 (GeneID 42804),DRSC14217,,,8399,3.38e5,inactive
RanBP3 (GeneID 42804),DRSC23153,,,3780,2.94e5,inactive
CG9782 (GeneID 32632),DRSC19145,,,5191,4.15e5,inactive
CG9782 (GeneID 32632),DRSC20209,,,6256,5.20e5,inactive
CG11403 (GeneID 31072),DRSC18532,,,7803,4.36e5,inactive
Ubc6 (GeneID 40610),DRSC12370,reporter ratio raised past the hit cutoff,,17752,4.33e5,inactive
CG14333 (retired record) (GeneID 42088),DRSC14812,,,6588,3.90e5,inactive
CG14333 (retired record) (GeneID 42088),DRSC15769,,,7831,2.92e5,inactive
Atg17 (GeneID 40700),DRSC12221,,,5991,3.24e5,inactive
mthl5 (GeneID 41438),DRSC16155,,,8078,4.17e5,inactive
